Measured values published in PubChem BioAssay AID248 (DTP/NCI, 2004).
The list does not hold the whole screen: it gathers tests that were run many times, whatever their T/C, doses with no T/C, and many T/C values between a quarter and a half above the control. Further doses and runs are listed elsewhere. T/C is the treated group as % of the vehicle group. Some entries give survivors of the animals treated and no T/C: the source holds a T/C of zero for them, seemingly a mark for toxic or unscored doses. Some survivor counts are full or nearly so, which does not show that the dose was tolerated: the source hardly ever lists a survival T/C far under the control, and the zero likely stands for such cases as well. Counts of survivors are from the toxicity check (mostly the fifth day) where no day follows; animals may have died later. Schedule codes are those of the source, taken here to give the interval after Q, in days (D) or hours (H), and the number of doses after X. Some doses were run more than once; the values are given in rising order. Some schedules carry Z or #; the key to these is not given. Where survival is the endpoint, this PubChem deposit counts one and a half times the control or more as active, and values a quarter to a half above the control carry no call in these data; other NCI protocols may use other cut-offs. Some T/C values carry the count of animals alive at the toxicity check (mostly the fifth day); without a count, all were alive then.

System: L1210 leukemia ip in BDF1 mice, survival T/C
Experiment: NCI In Vivo Anticancer Drug Screen. Data for tumor model L1210 Leukemia (intraperitoneal) in B6D2F1 (BDF1) mice
Conditions: T/C endpoint: mean survival time, higher T/C = longer survival
[1] = dose: 100.0 mg/kg/injection, schedule: Q01DX001 (ip), vehicle: saline
[2] = dose: 200.0 mg/kg/injection, schedule: Q01DX001 (ip), vehicle: saline
[3] = dose: 400.0 mg/kg/injection, schedule: Q01DX001 (ip), vehicle: saline
[4] = dose: 200.0 mg/kg/injection, schedule: Q01DX001 (ip), vehicle: Klucel (hydroxypropylcellulose) (HPC)
[5] = dose: 400.0 mg/kg/injection, schedule: Q01DX001 (ip), vehicle: Klucel (hydroxypropylcellulose) (HPC)
[6] = dose: 900.0 mg/kg/injection, schedule: Q01DX001 (ip), vehicle: saline
[7] = dose: 1350.0 mg/kg/injection, schedule: Q01DX001 (ip), vehicle: saline
[8] = dose: 260.0 mg/kg/injection, schedule: Q04DX003 (ip), vehicle: saline
[9] = dose: 400.0 mg/kg/injection, schedule: Q04DX003 (ip), vehicle: saline

Q: Which results are given for `Nc1ncnc2c1c(C(=O)NO)cn2C1OC(CO)C(O)C1O` (configuration not stated)?
A: T/C (dose: 6.25 mg/kg/injection, schedule: Q01DX009 (ip), vehicle: saline): 136 % of control; T/C (dose: 12.5 mg/kg/injection, schedule: Q01DX005 (ip), vehicle: saline): 148 % of control; survivor count (dose: 25.0 mg/kg/injection, schedule: Q01DX009 (ip), vehicle: saline): 4 of 6; survivor count (dose: 50.0 mg/kg/injection, schedule: Q01DX005 (ip), vehicle: saline): 0 of 6; survivor count (dose: 75.0 mg/kg/injection, schedule: Q01DX001 (ip), vehicle: water): 3 of 6; survivor count (dose: 100.0 mg/kg/injection, schedule: Q01DX005 (ip), vehicle: saline): 0 of 6; survivor count (dose: 150.0 mg/kg/injection, schedule: Q01DX001 (ip), vehicle: water): 0 of 6; survivor count (dose: 200.0 mg/kg/injection, schedule: Q01DX005 (ip), vehicle: saline): 0 of 6; survivor count (dose: 300.0 mg/kg/injection, schedule: Q01DX001 (ip), vehicle: water): 0 of 6

Q: Which results are given for `CN(C)C(=O)On1cccc1C#N`?
A: survivor count (dose: 6.25 mg/kg/injection, schedule: Q01DX001 (ip), vehicle: saline with Tween-80): 1 of 3; survivor count (dose: 12.5 mg/kg/injection, schedule: Q01DX001 (ip), vehicle: saline with Tween-80): 0 of 3; survivor count (dose: 25.0 mg/kg/injection, schedule: Q01DX001 (ip), vehicle: saline with Tween-80): 0 of 3

Q: Which survivor count (dose: 6.25 mg/kg/injection, schedule: Q01DX001 (ip), vehicle: saline) does the source give for `CC1([CH2][Hg][I])COCC([CH2][Hg][I])O1` (configuration not stated) here?
A: 3 of 6

Q: What about the survivor count (dose: 12.5 mg/kg/injection, schedule: Q01DX001 (ip), vehicle: saline) of the same compound?
A: 2 of 6

Q: And the survivor count (dose: 25.0 mg/kg/injection, schedule: Q01DX001 (ip), vehicle: saline)?
A: 0 of 6

Q: What about the survivor count (dose: 35.0 mg/kg/injection, schedule: Q04DX003 (ip), vehicle: saline) of the same compound?
A: 3 of 6

Q: What about the survivor count (dose: 50.0 mg/kg/injection, schedule: Q01DX001 (ip), vehicle: saline) of the same compound?
A: 1 of 6

Q: And the survivor count [1]?
A: 0 of 6

Q: What about the survivor count [2] of the same compound?
A: 0 of 6

Q: Which survivor count (dose: 80.0 mg/kg/injection, schedule: Q01DX001 (ip), vehicle: saline) does the source give for `Cc1ccc2c(ccc3c[n+]4c5ccccc5ccc4n32)c1` here?
A: 0 of 6

Q: And the survivor count [1]?
A: 0 of 6

Q: What about the survivor count [2] of the same compound?
A: 0 of 6

Q: And the survivor count [3]?
A: 0 of 6

Q: `OC1(c2ccccc2)CCN(Cc2ccccc2)CC1` was tested. Which survivor count [4] did it give?
A: 0 of 6

Q: What about the survivor count [5] of the same compound?
A: 0 of 6

Q: For `CCC1COC(Nc2cccc3c2CCCC3)=N1` (configuration not stated), which survivor count (dose: 400.0 mg/kg/injection, schedule: Q04DX003 (ip), vehicle: saline with Tween-80) is on record?
A: 4 of 6

Q: `CC(=O)Nc1c(CCCCc2ccccc2)[nH]c(=O)[nH]c1=O` was tested. Which survivor count [4] did it give?
A: 3 of 3

Q: What about the survivor count [5] of the same compound?
A: 1 of 3

Q: With `CCNc1nncs1` as the compound, how does the T/C (dose: 34.5 mg/kg/injection, schedule: Q01DX Z (ip), vehicle: carboxymethylcellulose (CMC)) read?
A: 126 % of control

Q: And the T/C (dose: 37.0 mg/kg/injection, schedule: Q01DX Z (ip), vehicle: saline)?
A: 132 % of control

Q: And the T/C (dose: 64.5 mg/kg/injection, schedule: Q02DX010 (ip), vehicle: carboxymethylcellulose (CMC))?
A: 125 and 135 % of control

Q: What about the T/C (dose: 69.0 mg/kg/injection, schedule: Q01DX Z (ip), vehicle: carboxymethylcellulose (CMC)) of the same compound?
A: 115, 116, 122, 143 % of control

Q: And the T/C (dose: 90.0 mg/kg/injection, schedule: Q01DX015 (ip), vehicle: saline)?
A: 129 % of control

Q: And the T/C (dose: 96.0 mg/kg/injection, schedule: Q02DX010 (ip), vehicle: carboxymethylcellulose (CMC))?
A: 126 % of control

Q: And the T/C (dose: 96.75 mg/kg/injection, schedule: Q02DX010 (ip), vehicle: carboxymethylcellulose (CMC))?
A: 134 and 135 % of control

Q: And the T/C (dose: 135.0 mg/kg/injection, schedule: Q01DX015 (ip), vehicle: saline)?
A: 135 % of control

Q: And the T/C (dose: 150.0 mg/kg/injection, schedule: Q02DX010 (ip), vehicle: carboxymethylcellulose (CMC))?
A: 135 and 139 % of control

Q: What about the T/C (dose: 225.0 mg/kg/injection, schedule: Q02DX010 (ip), vehicle: carboxymethylcellulose (CMC)) of the same compound?
A: 124, 128, 133, 165 % of control

Q: What about the survivor count (dose: 300.0 mg/kg/injection, schedule: Q01DX Z (ip), vehicle: saline) of the same compound?
A: 2 of 6

Q: What about the T/C (dose: 337.5 mg/kg/injection, schedule: Q02DX010 (ip), vehicle: carboxymethylcellulose (CMC)) of the same compound?
A: 125 and 136 % of control

Q: And the survivor count [3]?
A: 2 of 6

Q: And the survivor count [6]?
A: 6 of 10

Q: What about the survivor count (dose: 1200.0 mg/kg/injection, schedule: Q01DX Z (oral), vehicle: saline) of the same compound?
A: 3 of 7

Q: And the survivor count [7]?
A: 1 of 10

Q: Which survivor count (dose: 100.0 mg/kg/injection, schedule: Q01DX001 (ip), vehicle: Klucel (hydroxypropylcellulose) (HPC)) does the source give for `C[n+]1c2ccccc2c(-c2c3ccccc3[n+](C)c3ccccc23)c2ccccc21` here?
A: 1 of 6

Q: And the survivor count [4]?
A: 3 of 6

Q: What about the survivor count [5] of the same compound?
A: 0 of 6

Q: What does the source list for `CCN(CCO)CCNc1ccc(C)c2sc3ccccc3c(=O)c12`?
A: T/C (dose: 26.0 mg/kg/injection, schedule: Q03HX024 (ip), vehicle: saline): 136 % of control; T/C (dose: 40.0 mg/kg/injection, schedule: Q03HX024 (ip), vehicle: saline): 140 % of control; survivor count (dose: 60.0 mg/kg/injection, schedule: Q03HX024 (ip), vehicle: saline): 9 of 9; T/C (dose: 78.0 mg/kg/injection, schedule: Q01DX001 (ip), vehicle: saline): 141 % of control; T/C (dose: 90.0 mg/kg/injection, schedule: Q01DX009 (ip), vehicle: saline): 145 % of control; survivor count (dose: 90.0 mg/kg/injection, schedule: Q03HX024 (ip), vehicle: saline): 9 of 10; survivor count (dose: 135.0 mg/kg/injection, schedule: Q03HX024 (ip), vehicle: saline): 10 of 10; T/C (dose: 260.0 mg/kg/injection, schedule: Q01DX001 (ip), vehicle: saline): 148 % of control [9 of 10 alive]; T/C [8]: 135 % of control [7 of 10 alive]; survivor count [8]: 9 of 10; survivor count (dose: 390.0 mg/kg/injection, schedule: Q01DX001 (ip), vehicle: saline): 4 of 10; survivor count (dose: 390.0 mg/kg/injection, schedule: Q04DX003 (ip), vehicle: saline): 3 of 10; survivor count [3]: 0 of 4 and 3 of 10; survivor count [9]: 0 of 10; survivor count (dose: 600.0 mg/kg/injection, schedule: Q01DX001 (ip), vehicle: saline): 0 of 10; survivor count (dose: 600.0 mg/kg/injection, schedule: Q04DX003 (ip), vehicle: saline): 0 of 10; survivor count [6]: 0 of 10; survivor count (dose: 900.0 mg/kg/injection, schedule: Q04DX003 (ip), vehicle: saline): 0 of 10; survivor count [7]: 0 of 10; survivor count (dose: 1350.0 mg/kg/injection, schedule: Q04DX003 (ip), vehicle: saline): 0 of 10

Q: `Cc1ccc(S(=O)(=O)N(CCC(=N)N)C(C)C)cc1` was tested. Which survivor count (dose: 200.0 mg/kg/injection, schedule: Q04DX003 (ip), vehicle: saline) did it give?
A: 0 of 6

Q: What about the survivor count [9] of the same compound?
A: 0 of 6

Q: How did the survivor count (dose: 100.0 mg/kg/injection, schedule: Q01DX009 (ip), vehicle: Klucel (hydroxypropylcellulose) (HPC)) turn out when `O=C(Nc1ccccn1)Nc1ccccn1` was run?
A: 6 of 6

Q: What about the survivor count (dose: 200.0 mg/kg/injection, schedule: Q01DX009 (ip), vehicle: Klucel (hydroxypropylcellulose) (HPC)) of the same compound?
A: 6 of 6

Q: What about the survivor count (dose: 400.0 mg/kg/injection, schedule: Q01DX009 (ip), vehicle: Klucel (hydroxypropylcellulose) (HPC)) of the same compound?
A: 0 of 6 and 6 of 6
